Source: PubChem BioAssay AID1347076 (National Center for Advancing Translational Sciences (NCATS), 2019)
Among all 400,000 compounds or so, about 13,000 (3.2%) were called active. The inconclusive results got no clear call from the source; some entries with a clear call stand among them for comparison. The call rests on the fitted dose curve; in most records, active means well fitted cell-killing curve with a large enough effect; inconclusive means small, poorly fitted or top-dose-only effect, or effect the other way; inactive means flat fitted curve, though single readings scatter. A potency beside an inconclusive call is a rough fit, not a confirmed value.

Assay: qHTS assay for MDR1-selective chemotherapeutics: Primary screen using the drug-selected MDR subline cells KB-V1; further: nearly all actives have a fitted effect of over 60% in size
Details: KB-V1 MDR cells viability, CellTiter-Glo, 72 h; activity change, negative = cytotoxicity: at 46.1 µM (top of the series)
Summary of the method: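 Drug-selected KB-V1 cells, grown in DMEM lacking phenol red with 10% FBS, receive compound titrations; after three days at 37 degrees C, surviving cell ATP is quantified by CellTiter-Glo luminescence and responses normalized and curve-fitted.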
On the % scale 0 is the no-effect control and ±100 the full control effect; potency means the concentration at half of the fitted maximal effect.

| Structure (SMILES) | Potency | activity change, negative = cytotoxicity |
| --- | --- | --- |
| COC(=O)c1sccc1NS(=O)(=O)c1ccc(OC)cc1 | active: 18.4 µM |  |
| CC1=CC2=NC(=O)CC(C)(C(=O)N(CC(=O)NC(C)(C)C)Cc3ccccc3)N2C=C1 (centres undefined) | inconclusive: 4.11 µM [cytotoxic, full curve] |  |
| COc1ccc2nc(SCC(=O)NCCc3ccccc3)[nH]c2c1 | inconclusive: 20.6 µM [cytotoxic, single point] |  |
| CC1C(=O)N(Cc2cn(Cc3ccco3)nn2)CCS(=O)(=O)N1Cc1ccc(-c2ccccc2Cl)cc1 (centres undefined) | inconclusive: 29.1 µM [cytotoxic, partial curve, poor fit] |  |
| Cc1ccc(O)c(NC(=S)NC(=O)/C=C/c2ccco2)c1 | inconclusive: 14.6 µM [cytotoxic, partial curve, poor fit] |  |
| CCOC(=O)CSc1nc(-c2cccs2)nc2c1c(=O)n(C)c(=O)n2C | inconclusive: 29.1 µM [rising, single point] |  |
| COc1ccc(NC(=O)COc2ccccc2C)cc1S(=O)(=O)N1CCCCC1 | inconclusive: 1.46 µM [cytotoxic, full curve, poor fit] |  |
| COc1ccc(-c2csc(NC(=O)CN3C(=O)C4CCCCC4C3=O)n2)cc1OC (centres undefined) | inconclusive: 10.3 µM [cytotoxic, partial curve] |  |
| Cn1c(=O)c2c(ncn2CC(=O)N2CCCCCC2)n(C)c1=O | inactive |  |
| Cc1nn(-c2ccc(F)cc2)c(-n2cccc2)c1C(=O)N1CCN(c2ccc(F)cc2)CC1 | active: 16.4 µM |  |
| Cc1ccc(N(CC(=O)N2CC(=O)Nc3ccccc32)S(=O)(=O)c2ccc3c(c2)OCCO3)cc1 | inconclusive: 18.4 µM [cytotoxic, partial curve] |  |
| O=S(=O)([O-])C(c1ccccc1)[n+]1ccccc1 (centres undefined) |  | inconclusive: 49% |
| Cc1nn2c(=O)[nH]cnc2c1Cl | inactive |  |
| O=C(CSc1ccc(-c2ccccn2)nn1)Nc1ccc(F)c(F)c1 | inconclusive: 4.61 µM [cytotoxic, full curve] |  |
| Cc1ccccc1-n1c(SCC(=O)Nc2ccccc2)nc2nc3c(cc2c1=O)CCCC3 | inconclusive: 2.31 µM [cytotoxic, partial curve] |  |
| COc1ccccc1OCC(=O)Nc1ccc(S(=O)(=O)N2CCOCC2)cc1 | inactive |  |
| CNC(=S)N1N=C(c2cccs2)CC1c1ccc(OC)cc1 (centres undefined) | inactive |  |
| O=C(COC(=O)Cc1ccsc1)Nc1ccc(Cl)cc1F | inactive |  |
| CCC(C)(C)NC(=O)CN(C(=O)C(=O)Nc1ccc2c(c1)OCCO2)C(C)(C)CC | inconclusive: 7.31 µM [cytotoxic, partial curve] |  |

Some values from the list.
COc1ccc2nc(SCC(=O)NCCc3ccccc3)[nH]c2c1 | Potency: inconclusive: 20.6 µM [cytotoxic, single point]
CNC(=S)N1N=C(c2cccs2)CC1c1ccc(OC)cc1 (centres undefined) | Potency: inactive
